Data on 1 molecule can be found in US20080286287A1.

Protein sequences, listed by entry. Tags and fused reporters are not part of them. Residues count along the entry.
UniProt P05019, residues 49-118: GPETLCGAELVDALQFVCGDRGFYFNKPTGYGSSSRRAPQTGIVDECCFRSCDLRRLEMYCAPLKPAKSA

These are yes or no findings as the source states them, for the method shown. Some results given as binding are weak or reduced against the parent protein; the word gives no strength.

The experiment addresses Human-IGF-I (human) (UniProt P05019). Briefly: 125I-IGF-I binding and DSS cross-linking to rat olfactory bulb membranes, SDS-PAGE autoradiography.

B1: rat IGFBP-2 associated with rat brain olfactory bulb membranes (protein, UniProt P12843 35-304, looked up)
chain: EVLFRCPPCTPERLAACGPPPDAPCAELVREPGCGCCSVCARQEGEACGVYIPRCAQTLRCYPNPGSELPLKALVTGAGTCEKRRVGATPQQVADSEDDHSEGGLVENHVDGTMNMLGGSSAGRKPPKSGMKELAVFREKVNEQHRQMGKGAKHLSLEEPKKLRPPPARTPCQQELDQVLERISTMRLPDDRGPLEHLYSLHIPNCDKHGLYNLKQCKMSLNGQRGECWCVNPNTGKPIQGAPTIRGDPECHLFYNEQQENDGAHAQRVQ
Turning to B1, the binding entry is “binds”.
